Source: the supplement of paper PMC4807443
Structures can show the parent of a compound that is named as a salt. The list shows a part of the results. The numbers are fractions of the control, whatever unit the source prints. Most entries show no effect beyond the scatter of the controls.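 MIN6 is a mouse insulinoma beta-cell line that stably carries a lentiviral reporter in which the Pdx1 and Ins1 promoters each drive a nucleus-targeted fluorescent protein; cells were counted by automated imaging with a Hoechst nuclear stain. In the screen, a drug was a possible hit when its Ins1 promoter readout lay beyond two median absolute deviations from the DMSO controls while Pdx1 activity stayed near normal.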

tested on: MIN6; assay: % Pdx1+ Ins1-low (RFP-only, immature) cells relative to DMSO control (fold of DMSO control); higher = more immature Pdx1+/Ins1-low cells; conditions: 8.5 µM; 48 h; glucose 5 mM

| Compound | % Pdx1+ Ins1-low |
| --- | --- |
| C[N+]1(C)CCC(OC(=O)C(O)(c2ccccc2)C2CCCC2)C1 (stereo not given) [Glycopyrrolate] | 0.869 |
| CN(C)CCCOc1nn(Cc2ccccc2)c2ccccc12 [Benzydamine hydrochloride] | 0.912 |
| CC(=O)OCC(=O)[C@@]1(O)CC[C@H]2[C@@H]3CCC4=CC(=O)C=C[C@]4(C)[C@@]3(F)[C@@H](O)C[C@@]21C [Isoflupredone acetate] | 0.887 |
| COc1cc2nc(N3CCN(C(=O)C4CCCO4)CC3)nc(N)c2cc1OC (stereo not given) [Terazosin hydrochloride] | 1.22 |
| Nc1ccc(S(=O)(=O)Nc2ccc(Cl)nn2)cc1 [Sulfachloropyridazine] | 1.02 |
| C[n+]1cccc(C(=O)[O-])c1 [Trigonelline] | 1.12 |
| CNNCc1ccc(C(=O)NC(C)C)cc1 [Procarbazine hydrochloride] | 0.845 |
| CN(C)CCC=C1c2ccccc2C=Cc2ccccc21 [Cyclobenzaprine hydrochloride] | 1.04 |
| NS(=O)(=O)c1cc2c(cc1Cl)NCNS2(=O)=O [Hydrochlorothiazide] | 0.692 |
| C[N+]1(C)CCC(=C(c2ccccc2)c2ccccc2)CC1 [Diphemanil methylsulfate] | 0.635 |
| C[C@@H]1C(=O)O[C@H]2C[C@@]34[C@H]5C[C@@H](C(C)(C)C)[C@]36[C@@H](OC(=O)[C@@H]6O)O[C@@]4(C(=O)O5)[C@]21O [Ginkgolide A] | 1.3 |
| CC(=O)Oc1cc(C(C)C)c(OCCN(C)C)cc1C [Moxisylyte hydrochoride] | 0.664 |
| CC[C@]12CCCN3CCc4c(n(c5ccccc45)C(=O)C1)[C@@H]32 [Eburnamonine (-)] | 0.598 |
| CNC(=C[N+](=O)[O-])NCCSCc1csc(CN(C)C)n1 [Nizatidine] | 1.15 |
| CS(=O)(=O)Nc1ccc([N+](=O)[O-])cc1Oc1ccccc1 [Nimesulide] | 0.955 |
| COc1cc(C)nc(-n2nc(C)cc2OC)n1 [Epirizole] | 0.708 |
| CCn1cc(C(=O)O)c(=O)c2cc(F)c(N3CCNC(C)C3)c(F)c21 (stereo not given) [Lomefloxacin hydrochloride] | 1.13 |
| C[C@]12C=CC(=O)C=C1CC[C@@H]1[C@@H]2C(=O)C[C@@]2(C)[C@H]1CC[C@]2(O)C(=O)CO [Prednisone] | 1.24 |
| CC(C)(O/N=C(\C(=O)N[C@@H]1C(=O)N2C(C(=O)[O-])=C(C[n+]3ccccc3)CS[C@H]12)c1csc(N)n1)C(=O)O [Ceftazidime pentahydrate] | 0.954 |
| Cc1ccc(/C(=C\CN2CCCC2)c2ccccn2)cc1 [Triprolidine hydrochloride] | 0.653 |

Among those listed so far, these contain a carbonyl joined to an NH by a bond outside any ring:

| Compound | % Pdx1+ Ins1-low |
| --- | --- |
| CNNCc1ccc(C(=O)NC(C)C)cc1 [Procarbazine hydrochloride] | 0.845 |
| CC(C)(O/N=C(\C(=O)N[C@@H]1C(=O)N2C(C(=O)[O-])=C(C[n+]3ccccc3)CS[C@H]12)c1csc(N)n1)C(=O)O [Ceftazidime pentahydrate] | 0.954 |
